At least one structure is not confirmed: it was looked up by name or label, or the drawing left a doubt.
Molecular target: T1, OGG1 (Homo sapiens, UniProt O15527)
T1 construct: His tag; made in house; host or cells: bacterial culture (LB media, IPTG induction)
Assay: gel-shift assay (EMSA) of OGG1 bound to DNA substrates
Type: binding
Conditions: 8-oxo-Gua or AP site substrate, 50 μM

Protein sequences, listed by entry. Tags and fused reporters are not part of them.
UniProt O15527, whole entry: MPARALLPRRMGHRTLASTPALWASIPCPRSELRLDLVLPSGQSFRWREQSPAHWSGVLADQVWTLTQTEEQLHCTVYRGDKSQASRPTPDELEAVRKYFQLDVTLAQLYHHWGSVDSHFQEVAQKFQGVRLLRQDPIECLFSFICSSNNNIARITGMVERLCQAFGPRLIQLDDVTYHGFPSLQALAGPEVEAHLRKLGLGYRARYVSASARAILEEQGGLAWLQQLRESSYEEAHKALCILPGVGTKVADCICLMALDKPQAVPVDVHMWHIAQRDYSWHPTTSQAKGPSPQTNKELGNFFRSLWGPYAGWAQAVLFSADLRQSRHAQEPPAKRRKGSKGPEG

O=C(O)C1=CC(=C(c2ccc(O)c(C(=O)O)c2)c2ccc(O)c(C(=O)O)c2)C=CC1=O [aurintricarboxylic acid]
effect on ability of OGG1 to bind substrate: abrogated

— US20170038365A1, “SMALL MOLECULE INHIBITORS OF 8-OXOGUANINE DNA GLYCOSYLASE-1 (OGG1)” (OREGON HEALTH & SCIENCE UNIVERSITY, priority 2015, published 2017)
